Laboratory results taken from PMC13411936.

The chains behind the UniProt entries cited, without tags or fusion partners. Where a name states a change or a piece, a line headed by the entry shows the natural chain unless it says otherwise.
UniProt Q9HZF9: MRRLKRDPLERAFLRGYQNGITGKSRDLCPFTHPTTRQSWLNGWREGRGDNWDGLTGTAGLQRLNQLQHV

Target: BatR-3xFlag (P. aeruginosa PAO1) (UniProt Q9HZF9)
Test: affinity purification with mass spectrometry; co-immunoprecipitation of BatR-3xFlag (bait) with PAO1 proteins, mass spectrometry of the precipitate; protocol in S5 Data

B1: Uncharacterized protein PA1069 (protein, UniProt Q9I4Q5 1-764)
chain: MDIWNWVEKLRADLREAGQEQSARLIDELTAYVCDLEVERAEALLPEVKALSRTLNNPWLEIFVRHWEMRNRVGNQLEGETALADAVSLFELANRDDTQACPQSVCVTQDLASCYANVDGPGWVEERIEVCDETLARIDPTWACFHCLSNEKAEALLDDGRGEDALAFLAEQEKKILAAGEEVFDSLLEMRVAILLNLGRAEQALALIGEMEEKVEGAEWNNISQPRRLYKAHGLALLGRDEEALEALLPFSEIAPRYRTIWLRAVYLLLQRTPERNTWDFGGRLQQMLEHYSQKGAHRVVIDVASQAIRLALQRGSVWSARRHLALAEQHAQQLQRDRGASQLLAGLREEIDAAPQQQELPVPAAELLDWLAAQGSEDAPRNPEKEVQWLLQALAERPDDTALREVAASALQACSADDEAIDLLWEYVERHTDEEQQLAYYLLNALLARGEYDQVKRLGRLYADSVPLIALWSEVKLAEKLNDWPELERACQSVLEISPGSLGAHSLLGKALMEQDRFAEAALAYQRLAGKLEEPQSVQWDQMTAASAARDWTMLREVAAGMGMEFAAGDGPIEEDWGWVIVRYIEDGEALDYYARRTGPVTARVLENAPGNRSQRVGDWVVFDAGLIYPAPEDEEERKRFVPTYAMVHVLESGGYSPSWLVDGVYPGDEAFDAFRETLDARGWKVWVHSNRDYQVTDASSGEELRAIYFTVATPAQQAPRDLHQALQEATGQWPHRMCWLRLAEAAEVDTQPHLDAIERYGL
Question: Which binding does the source give for B1 here?
Answer: binds

Results are given in words; binding and its absence hold for the method and conditions named. In cells and extracts the contact can be indirect. Here binding means that the protein was enriched with, or labelled near, the bait; the list need not be complete.
